Source: the supplement of paper PMC10849652
The other results are listed elsewhere or left out.

Sequences of proteins named here, by UniProt entry; tags and fusion partners are left off. A change or cut given only in a name is not applied to a line headed by its entry.
UniProt P03928: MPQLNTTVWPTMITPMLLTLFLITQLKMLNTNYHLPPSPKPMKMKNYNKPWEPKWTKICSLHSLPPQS
UniProt P43246, whole entry, looked up: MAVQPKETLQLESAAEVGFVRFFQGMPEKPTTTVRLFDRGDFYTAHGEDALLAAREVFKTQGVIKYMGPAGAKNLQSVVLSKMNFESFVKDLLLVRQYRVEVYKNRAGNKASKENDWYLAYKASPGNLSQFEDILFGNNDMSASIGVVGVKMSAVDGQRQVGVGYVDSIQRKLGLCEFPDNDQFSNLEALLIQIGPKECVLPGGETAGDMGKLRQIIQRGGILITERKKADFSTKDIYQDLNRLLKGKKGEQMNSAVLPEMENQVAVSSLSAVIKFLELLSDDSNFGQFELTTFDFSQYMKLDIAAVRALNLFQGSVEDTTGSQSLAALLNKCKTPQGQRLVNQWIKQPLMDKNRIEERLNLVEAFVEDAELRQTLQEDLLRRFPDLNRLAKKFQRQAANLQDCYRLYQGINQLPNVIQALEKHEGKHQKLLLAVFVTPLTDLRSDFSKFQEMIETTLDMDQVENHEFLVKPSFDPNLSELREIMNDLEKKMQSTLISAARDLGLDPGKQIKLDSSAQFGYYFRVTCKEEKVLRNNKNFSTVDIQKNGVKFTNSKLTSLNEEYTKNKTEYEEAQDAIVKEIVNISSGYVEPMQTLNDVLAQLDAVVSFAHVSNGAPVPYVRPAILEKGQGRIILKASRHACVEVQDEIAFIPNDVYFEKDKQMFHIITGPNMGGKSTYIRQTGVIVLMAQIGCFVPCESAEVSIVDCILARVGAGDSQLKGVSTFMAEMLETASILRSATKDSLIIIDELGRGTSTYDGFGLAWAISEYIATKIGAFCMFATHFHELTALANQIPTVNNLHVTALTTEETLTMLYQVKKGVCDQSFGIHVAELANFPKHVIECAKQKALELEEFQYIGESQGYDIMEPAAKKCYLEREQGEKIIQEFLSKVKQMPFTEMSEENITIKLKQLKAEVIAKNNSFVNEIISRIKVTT
MTHFD1, A0A384N5Y3, UniProt A0A384N5Y3, whole entry, looked up: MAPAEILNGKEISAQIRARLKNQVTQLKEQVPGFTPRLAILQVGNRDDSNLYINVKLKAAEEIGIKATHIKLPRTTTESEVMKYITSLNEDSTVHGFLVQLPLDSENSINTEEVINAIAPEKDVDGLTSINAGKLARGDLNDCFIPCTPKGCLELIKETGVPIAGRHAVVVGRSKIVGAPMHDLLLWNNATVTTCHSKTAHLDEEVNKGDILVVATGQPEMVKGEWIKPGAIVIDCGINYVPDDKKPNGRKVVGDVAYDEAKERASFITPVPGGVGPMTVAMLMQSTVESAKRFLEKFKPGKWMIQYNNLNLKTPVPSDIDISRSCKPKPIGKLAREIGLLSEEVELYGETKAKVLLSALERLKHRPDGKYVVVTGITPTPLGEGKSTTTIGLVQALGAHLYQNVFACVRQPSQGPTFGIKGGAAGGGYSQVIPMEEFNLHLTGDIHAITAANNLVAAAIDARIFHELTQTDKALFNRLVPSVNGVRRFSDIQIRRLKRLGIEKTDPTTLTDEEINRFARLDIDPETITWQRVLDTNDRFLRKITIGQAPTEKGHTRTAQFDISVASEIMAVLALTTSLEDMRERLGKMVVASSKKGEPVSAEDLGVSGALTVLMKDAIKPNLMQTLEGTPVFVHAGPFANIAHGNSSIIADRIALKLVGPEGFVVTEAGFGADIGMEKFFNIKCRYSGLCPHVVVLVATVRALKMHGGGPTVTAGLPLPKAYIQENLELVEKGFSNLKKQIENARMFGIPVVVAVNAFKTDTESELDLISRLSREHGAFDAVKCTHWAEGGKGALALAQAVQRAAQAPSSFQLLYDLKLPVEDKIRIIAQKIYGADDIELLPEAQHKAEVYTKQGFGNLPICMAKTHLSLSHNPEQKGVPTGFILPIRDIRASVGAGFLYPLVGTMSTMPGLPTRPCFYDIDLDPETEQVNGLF
UniProt Q9NYA4: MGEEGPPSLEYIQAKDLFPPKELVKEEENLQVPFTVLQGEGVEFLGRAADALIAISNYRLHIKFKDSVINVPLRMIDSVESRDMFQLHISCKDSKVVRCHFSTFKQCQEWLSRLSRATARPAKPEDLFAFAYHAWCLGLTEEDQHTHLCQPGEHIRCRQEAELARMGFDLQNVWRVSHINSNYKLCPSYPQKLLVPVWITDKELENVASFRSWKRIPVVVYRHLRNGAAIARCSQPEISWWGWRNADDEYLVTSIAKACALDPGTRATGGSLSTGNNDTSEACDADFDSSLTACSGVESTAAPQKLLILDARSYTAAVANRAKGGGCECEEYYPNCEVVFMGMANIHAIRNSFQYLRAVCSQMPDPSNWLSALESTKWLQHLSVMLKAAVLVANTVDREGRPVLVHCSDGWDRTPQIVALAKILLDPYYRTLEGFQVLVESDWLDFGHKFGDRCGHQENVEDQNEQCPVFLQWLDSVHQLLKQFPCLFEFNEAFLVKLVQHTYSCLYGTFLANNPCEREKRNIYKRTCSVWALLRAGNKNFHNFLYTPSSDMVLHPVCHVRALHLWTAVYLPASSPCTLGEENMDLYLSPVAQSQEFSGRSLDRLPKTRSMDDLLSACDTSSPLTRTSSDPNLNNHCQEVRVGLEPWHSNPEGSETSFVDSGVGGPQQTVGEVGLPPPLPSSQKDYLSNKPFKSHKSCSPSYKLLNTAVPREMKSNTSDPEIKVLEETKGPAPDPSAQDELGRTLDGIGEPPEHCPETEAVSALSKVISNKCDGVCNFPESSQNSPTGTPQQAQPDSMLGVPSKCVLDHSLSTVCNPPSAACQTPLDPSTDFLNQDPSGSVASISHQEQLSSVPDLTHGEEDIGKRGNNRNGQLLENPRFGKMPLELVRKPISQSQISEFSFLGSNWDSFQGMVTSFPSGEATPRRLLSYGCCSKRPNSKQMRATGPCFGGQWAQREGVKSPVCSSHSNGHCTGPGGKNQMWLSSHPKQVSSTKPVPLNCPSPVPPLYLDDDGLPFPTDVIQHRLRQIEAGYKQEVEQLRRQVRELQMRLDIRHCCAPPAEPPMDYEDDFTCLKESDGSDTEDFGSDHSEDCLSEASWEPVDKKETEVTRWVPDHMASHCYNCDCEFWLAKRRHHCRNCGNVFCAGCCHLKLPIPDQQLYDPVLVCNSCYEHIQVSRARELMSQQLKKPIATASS
UniProt Q9Y3D2: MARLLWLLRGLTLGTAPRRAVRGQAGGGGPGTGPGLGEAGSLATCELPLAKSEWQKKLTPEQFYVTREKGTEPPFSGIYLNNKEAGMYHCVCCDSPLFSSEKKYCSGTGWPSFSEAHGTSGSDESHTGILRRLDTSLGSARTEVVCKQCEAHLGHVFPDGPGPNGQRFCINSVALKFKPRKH
UniProt Q9UDX5: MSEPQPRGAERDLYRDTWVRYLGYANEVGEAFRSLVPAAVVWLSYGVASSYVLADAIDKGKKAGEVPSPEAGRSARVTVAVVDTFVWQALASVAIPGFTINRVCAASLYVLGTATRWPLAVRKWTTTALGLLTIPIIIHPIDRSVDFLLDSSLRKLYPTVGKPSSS
UniProt Q9H2K0, whole entry, looked up: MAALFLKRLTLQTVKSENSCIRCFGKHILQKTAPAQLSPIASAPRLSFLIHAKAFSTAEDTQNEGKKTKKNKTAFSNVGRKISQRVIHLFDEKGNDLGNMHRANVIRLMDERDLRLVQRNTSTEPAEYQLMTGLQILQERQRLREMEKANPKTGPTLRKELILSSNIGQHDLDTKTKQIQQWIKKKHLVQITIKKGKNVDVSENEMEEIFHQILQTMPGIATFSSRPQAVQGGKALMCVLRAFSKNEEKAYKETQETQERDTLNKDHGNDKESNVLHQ
UniProt Q9NVV4: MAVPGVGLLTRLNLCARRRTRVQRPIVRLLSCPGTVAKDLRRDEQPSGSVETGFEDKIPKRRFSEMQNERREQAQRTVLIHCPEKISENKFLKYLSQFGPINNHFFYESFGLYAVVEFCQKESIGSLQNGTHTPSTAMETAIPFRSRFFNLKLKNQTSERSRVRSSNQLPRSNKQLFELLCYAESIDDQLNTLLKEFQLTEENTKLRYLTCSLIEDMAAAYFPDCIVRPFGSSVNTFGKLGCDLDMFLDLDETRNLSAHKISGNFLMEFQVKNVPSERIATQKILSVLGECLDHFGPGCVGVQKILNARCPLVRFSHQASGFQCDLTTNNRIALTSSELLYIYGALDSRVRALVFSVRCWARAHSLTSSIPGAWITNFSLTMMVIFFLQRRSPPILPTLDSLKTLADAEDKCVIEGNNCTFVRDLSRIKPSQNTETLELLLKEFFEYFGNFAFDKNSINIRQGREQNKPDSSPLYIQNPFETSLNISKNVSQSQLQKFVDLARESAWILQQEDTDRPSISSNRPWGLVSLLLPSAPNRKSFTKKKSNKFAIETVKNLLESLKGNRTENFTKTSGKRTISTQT
UniProt P00414, whole entry, looked up: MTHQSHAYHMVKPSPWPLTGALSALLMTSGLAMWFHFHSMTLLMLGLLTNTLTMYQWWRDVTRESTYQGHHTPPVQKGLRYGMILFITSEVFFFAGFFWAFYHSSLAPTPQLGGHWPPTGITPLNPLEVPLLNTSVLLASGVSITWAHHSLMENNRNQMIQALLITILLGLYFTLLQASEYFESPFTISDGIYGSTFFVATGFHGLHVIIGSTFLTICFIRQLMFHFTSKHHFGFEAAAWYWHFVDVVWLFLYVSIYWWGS
UniProt Q96E11: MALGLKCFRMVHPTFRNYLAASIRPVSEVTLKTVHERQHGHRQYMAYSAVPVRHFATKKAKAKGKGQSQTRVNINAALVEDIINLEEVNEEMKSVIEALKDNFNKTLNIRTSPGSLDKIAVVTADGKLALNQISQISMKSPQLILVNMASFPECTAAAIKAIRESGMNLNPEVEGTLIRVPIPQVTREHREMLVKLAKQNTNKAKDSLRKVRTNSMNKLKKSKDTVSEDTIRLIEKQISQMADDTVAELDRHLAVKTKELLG
UniProt Q9UGC7: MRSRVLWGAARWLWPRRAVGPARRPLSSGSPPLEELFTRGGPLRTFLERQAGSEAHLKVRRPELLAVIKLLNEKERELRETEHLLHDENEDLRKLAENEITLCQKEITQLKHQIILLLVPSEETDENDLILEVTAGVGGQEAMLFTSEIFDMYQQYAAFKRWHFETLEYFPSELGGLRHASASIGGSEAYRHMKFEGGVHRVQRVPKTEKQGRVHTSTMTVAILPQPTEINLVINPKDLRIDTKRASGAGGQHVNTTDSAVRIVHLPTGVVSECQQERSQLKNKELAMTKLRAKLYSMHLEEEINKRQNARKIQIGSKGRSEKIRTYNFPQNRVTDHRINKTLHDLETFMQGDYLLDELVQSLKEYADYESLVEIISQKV
UniProt Q68DK7: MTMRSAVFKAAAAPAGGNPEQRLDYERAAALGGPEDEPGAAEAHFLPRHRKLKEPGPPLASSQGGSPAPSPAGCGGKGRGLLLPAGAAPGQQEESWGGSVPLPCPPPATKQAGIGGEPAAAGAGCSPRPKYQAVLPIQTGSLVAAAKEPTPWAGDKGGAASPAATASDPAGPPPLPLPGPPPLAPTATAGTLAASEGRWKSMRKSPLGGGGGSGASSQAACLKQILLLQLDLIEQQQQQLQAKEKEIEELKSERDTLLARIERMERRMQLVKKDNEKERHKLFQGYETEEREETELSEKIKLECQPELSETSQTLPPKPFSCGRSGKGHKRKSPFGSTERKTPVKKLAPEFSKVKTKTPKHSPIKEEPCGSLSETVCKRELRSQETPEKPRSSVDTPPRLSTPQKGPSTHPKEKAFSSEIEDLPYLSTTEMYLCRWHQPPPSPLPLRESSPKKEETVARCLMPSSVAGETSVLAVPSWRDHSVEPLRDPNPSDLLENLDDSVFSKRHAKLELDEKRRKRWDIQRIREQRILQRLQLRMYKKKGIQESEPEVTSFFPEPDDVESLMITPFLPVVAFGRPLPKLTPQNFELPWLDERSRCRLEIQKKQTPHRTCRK
UniProt P03905, whole entry, looked up: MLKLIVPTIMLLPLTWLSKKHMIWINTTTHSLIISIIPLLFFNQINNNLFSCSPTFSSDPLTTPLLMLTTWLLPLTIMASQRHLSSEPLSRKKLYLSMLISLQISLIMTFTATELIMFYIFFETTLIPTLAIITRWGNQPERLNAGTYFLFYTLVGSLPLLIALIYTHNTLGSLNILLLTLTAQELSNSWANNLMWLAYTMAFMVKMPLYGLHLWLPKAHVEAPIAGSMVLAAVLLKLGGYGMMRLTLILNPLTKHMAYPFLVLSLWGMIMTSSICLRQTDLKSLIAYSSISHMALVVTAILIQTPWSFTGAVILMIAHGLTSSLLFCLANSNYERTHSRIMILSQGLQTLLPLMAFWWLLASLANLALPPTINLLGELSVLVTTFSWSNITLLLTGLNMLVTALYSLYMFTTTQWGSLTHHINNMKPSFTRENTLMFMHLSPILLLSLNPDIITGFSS
UniProt P49914: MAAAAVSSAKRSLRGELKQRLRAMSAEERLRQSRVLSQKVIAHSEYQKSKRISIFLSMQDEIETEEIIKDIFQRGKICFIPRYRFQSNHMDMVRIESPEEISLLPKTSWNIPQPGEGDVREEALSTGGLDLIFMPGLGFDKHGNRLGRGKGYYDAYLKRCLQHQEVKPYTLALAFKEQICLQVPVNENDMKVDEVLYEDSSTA

How the values were obtained:
Test in all cases: log2 fold change, soluble protein after heating vs DMSO (PISA); higher = thermal stabilisation; K562 lysate, 10 uM; active = over 0.2 and 3.5 SD of the protein, either way, in both replicates (recomputed)
[1] = compound: NCC(=O)Nc1ccc(-n2nc(C(F)(F)F)cc2-c2ccc3c(ccc4ccccc43)c2)cc1
Procedure, shortened: (§1)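 K562 pellets were dounce-homogenised in PBS pH 7.4 with 1 mM MgCl2, and the crude extract at 1 mg/mL protein was treated with 10 μM compound for 30 min. Aliquots were heated for 3 min across 48°C-58°C, pooled, and brought to 0.5% NP-40 at 4°C; soluble protein was the supernatant after 21,000xg for 90 min. Soluble protein was quantified by TMTpro 16plex LC-MS/MS with channel sums equalised, and reported as log2 fold change in thermal stability against DMSO controls, with values from duplicates.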

[2] = compound: O=C(CCCCCCC(=O)Nc1ccccc1)NO [vorinostat]
Procedure, shortened: as §1

[3] = compound: O=C(O)c1ccc2c(c1)nc(Nc1cccc(Cl)c1)c1ccncc12 [silmitasertib]
Procedure, shortened: as §1

[4] = compound: O=C1NC(=O)C(c2cnc3ccccn23)=C1c1cn2c3c(cc(F)cc13)CN(C(=O)N1CCCCC1)CC2
Procedure, shortened: as §1

[5] = compound: c1cn2cc(-c3ccc4cn[nH]c4c3)nc(Nc3ccc(N4CCOCC4)cc3)c2n1 [entospletinib]
Procedure, shortened: as §1

Row | Target | log2 fold change [1] | log2 fold change [2] | log2 fold change [3] | log2 fold change [4] | log2 fold change [5]
1 | MRPL45 (UniProt Q9BRJ2) | inactive: 0.018 | inactive: -0.14 | inactive: 0.005 | inactive: -0.015 | inactive: 0.007
2 | MRPS18A isoform 2 (UniProt Q9NVS2) | inactive: 0.008 | inactive: 0.021 | inactive: 0.048 | inactive: 0.019 | inactive: -0.052
3 | MSH4 (UniProt O15457) | inactive: -0.007 |  |  |  | 
4 | MRPL43 isoform 4 (UniProt Q8N983) | inactive: 0.001 | inactive: 0.042 | inactive: -0.017 | inactive: 0.005 | inactive: 0
5 | MUC1, A0A087WWM1 | inactive: 0.03 | inactive: 0.031 | inactive: 0.014 | inactive: 0.001 | inactive: -0.011
6 | MT-ATP8 (UniProt P03928) | inactive: 0.056 | inactive: 0.155 | inactive: -0.026 | inactive: 0.08 | inactive: -0.009
7 | MRPS18C (UniProt Q9Y3D5) | inactive: 0.078 | inactive: -0.073 | inactive: -0.055 | inactive: -0.019 | inactive: 0.037
8 | MSH2 (UniProt P43246) | inactive: 0.006 | active: -0.287 | inactive: 0.027 | inactive: -0.022 | inactive: 0.034
9 | MTRR isoform 1 (UniProt Q9UBK8) | inactive: 0.052 | inactive: -0.036 | inactive: -0.001 | inactive: 0.044 | inactive: 0.021
10 | MTHFD1, A0A384N5Y3 | inactive: 0.036 | active: -0.243 | inactive: 0.056 | inactive: 0.028 | inactive: 0.026
11 | MRPS25 (UniProt P82663) | inactive: -0.054 | inactive: -0.082 | inactive: 0.048 | inactive: -0.069 | inactive: -0.022
12 | MTMR4 (UniProt Q9NYA4) | inactive: -0.291 | inactive: 0.016 | inactive: -0.115 | inactive: 0.054 | 
13 | MSRB2 (UniProt Q9Y3D2) | inactive: -0.145 | inactive: -0.041 | inactive: 0.01 | inactive: 0.043 | inactive: -0.025
14 | MTFP1 (UniProt Q9UDX5) | inactive: -0.04 | inactive: 0.102 | inactive: -0.007 | inactive: 0.02 | inactive: -0.009
15 | MRPS27 isoform 2 (UniProt Q92552) | inactive: 0.046 | inactive: -0.167 | inactive: -0.015 | inactive: 0.02 | inactive: 0.006
16 | MRTFB isoform 5 (UniProt Q9ULH7) | inactive: 0.017 | inactive: 0.026 | inactive: -0.004 | inactive: 0.035 | inactive: -0.024
17 | MRPL33 (UniProt O75394) | inactive: 0.195 | inactive: 0.242 | inactive: -0.015 | inactive: 0.194 | inactive: -0.064
18 | MRTO4 (UniProt Q9UKD2) | inactive: -0.023 | inactive: 0.102 | inactive: -0.018 | inactive: -0.007 | inactive: 0.018
19 | MTIF3 (UniProt Q9H2K0) | inactive: 0.1 | inactive: 0.135 | inactive: -0.071 |  | 
20 | MRPL35 (UniProt Q9NZE8) | inactive: -0.229 | inactive: -0.159 | inactive: 0.04 | inactive: 0.013 | 
21 | MTIF2 (UniProt P46199) | inactive: -0.01 | inactive: -0.176 | inactive: 0.008 | inactive: -0.05 | inactive: 0.005
22 | MTPAP (UniProt Q9NVV4) | inactive: 0.008 | inactive: -0.263 | inactive: -0.027 | inactive: 0.02 | inactive: 0.141
23 | MT-CO3 (UniProt P00414) | inactive: 0.018 |  |  |  | 
24 | MRPL3 (UniProt P09001) | inactive: 0.037 | inactive: -0.202 | inactive: 0.081 | inactive: 0.014 | inactive: 0.114
25 | MRRF (UniProt Q96E11) | inactive: 0.037 | inactive: 0.116 | inactive: -0.022 | inactive: 0.009 | inactive: -0.027
26 | MTHFSD isoform 3 (UniProt Q2M296) | inactive: -0.062 | inactive: -0.056 | inactive: -0.029 | inactive: 0 | 
27 | MTRF1L (UniProt Q9UGC7) | inactive: 0.078 | inactive: 0.126 | inactive: -0.027 | inactive: 0.014 | inactive: 0.033
28 | MRPL52 (UniProt Q86TS9) | inactive: -0.102 | inactive: 0.221 | inactive: -0.051 | inactive: -0.007 | inactive: -0.067

Numbers 20 to 23, reprinted for reference:
Row | Target | log2 fold change [1] | log2 fold change [2] | log2 fold change [3] | log2 fold change [4] | log2 fold change [5]
20 | MRPL35 (UniProt Q9NZE8) | inactive: -0.229 | inactive: -0.159 | inactive: 0.04 | inactive: 0.013 | 
21 | MTIF2 (UniProt P46199) | inactive: -0.01 | inactive: -0.176 | inactive: 0.008 | inactive: -0.05 | inactive: 0.005
22 | MTPAP (UniProt Q9NVV4) | inactive: 0.008 | inactive: -0.263 | inactive: -0.027 | inactive: 0.02 | inactive: 0.141
23 | MT-CO3 (UniProt P00414) | inactive: 0.018 |  |  |  | 

(cont.)

Row | Target | log2 fold change [1] | log2 fold change [2] | log2 fold change [3] | log2 fold change [4] | log2 fold change [5]
29 | MTREX (UniProt P42285) | inactive: 0.011 | inactive: 0.027 | inactive: 0.016 | inactive: -0.016 | inactive: 0.003
30 | MTMR3 (UniProt Q13615) | inactive: 0.003 | inactive: -0.165 | inactive: 0 | inactive: 0.013 | inactive: -0.006
31 | MRPS35 (UniProt P82673) | inactive: 0.05 | inactive: -0.114 | inactive: 0.065 | inactive: -0.032 | inactive: 0.05
32 | MRPS11 (UniProt P82912) | inactive: -0.03 | inactive: -0.071 | inactive: 0.02 | inactive: 0.078 | inactive: -0.024
33 | MRPS31 (UniProt Q92665) | inactive: 0.058 | inactive: 0.021 | inactive: -0.046 | inactive: -0.001 | inactive: 0
34 | MRPL37 (UniProt Q9BZE1) | inactive: -0.023 | inactive: -0.079 | inactive: 0.055 | inactive: 0.056 | inactive: 0.032
35 | MRPL53 (UniProt Q96EL3) | inactive: -0.052 | inactive: -0.119 | inactive: 0.042 | inactive: -0.024 | inactive: 0.033
36 | MSL1 (UniProt Q68DK7) | inactive: 0.1 | inactive: 0.162 | inactive: -0.012 | inactive: -0.042 | inactive: -0.058
37 | MRPS7 (UniProt Q9Y2R9) | inactive: 0.002 | inactive: -0.031 | inactive: 0.021 | inactive: 0.029 | inactive: 0.008
38 | MRPL50 (UniProt Q8N5N7) | inactive: -0.035 | inactive: 0.068 | inactive: -0.043 | inactive: 0.047 | inactive: -0.039
39 | MTMR2 (UniProt Q13614) | inactive: -0.069 | inactive: 0.09 | inactive: -0.015 | inactive: -0.026 | inactive: -0.02
40 | MRPS12 (UniProt O15235) | inactive: -0.005 | active: -0.35 | inactive: -0.011 | inactive: -0.013 | inactive: -0.046
41 | MT-ND4 (UniProt P03905) | inactive: -0.028 | inactive: 0.12 | inactive: 0.037 | inactive: 0.112 | inactive: -0.039
42 | MRPS10 (UniProt P82664) | inactive: 0.041 | inactive: 0.068 | inactive: -0.07 | inactive: 0.002 | inactive: 0.037
43 | MRPL32 (UniProt Q9BYC8) | inactive: 0.031 | inactive: -0.007 | inactive: 0.028 | inactive: 0.034 | inactive: -0.019
44 | MRPL38 (UniProt Q96DV4) | inactive: -0.08 | inactive: -0.077 | inactive: 0.105 | inactive: -0.033 | inactive: 0.025
45 | MTA3 (UniProt Q9BTC8) | inactive: 0.021 | active: -0.278 | inactive: -0.017 | inactive: -0.021 | inactive: 0.012
46 | MRPL57 (UniProt Q9BQC6) | inactive: -0.066 | inactive: 0.028 | inactive: -0.013 | inactive: -0.018 | inactive: -0.019
47 | MRPL24 (UniProt Q96A35) | inactive: -0.042 | inactive: -0.011 | inactive: 0.071 | inactive: 0.03 | inactive: -0.025
48 | MT-CO1 (UniProt P00395) | inactive: -0.097 | inactive: 0.076 | inactive: -0.037 | inactive: -0.01 | inactive: 0.114
49 | MTHFD2 (UniProt P13995) | inactive: -0.01 | inactive: -0.059 | inactive: -0.003 | inactive: 0.011 | inactive: 0.016
50 | MTX1 (UniProt Q13505) | inactive: 0.034 | inactive: 0.016 | inactive: -0.03 | inactive: -0.011 | inactive: 0.023
51 | MRPL48 (UniProt Q96GC5) | inactive: -0.002 | inactive: -0.061 | inactive: 0.014 | inactive: 0.01 | inactive: -0.004
52 | MTHFS (UniProt P49914) | inactive: 0.031 | inactive: -0.093 | inactive: 0.05 | inactive: -0.045 | inactive: 0.009
53 | MTCL1 (UniProt Q9Y4B5) | inactive: 0.033 | inactive: 0.095 | inactive: -0.016 | inactive: -0.016 | inactive: 0.01
54 | MTMR12 (UniProt Q9C0I1) | inactive: 0.026 | inactive: 0.024 | inactive: -0.014 | inactive: -0.025 | inactive: 0.016
55 | MRPS26 (UniProt Q9BYN8) | inactive: 0.023 | inactive: 0.132 | inactive: -0.194 | inactive: -0.109 | inactive: 0
